Test results as given in patent US10449230B2 (The Regents of the University of California, priority 2016, dated 2019).
Some peptides are written in HELM: one residue between dots, names in brackets for other building blocks, links after the first $.

Experiment: general procedure: peptide synthesis; HATU/DIEA (4a); PyBrop/DIEA (4b)
Conditions: TFA salt; for conjugation yield: conjugation step

| Substance | step yield (late stage modification step) [%] | conjugation yield [%] |
| --- | --- | --- |
| Boc-PMBN | 69 |  |
| PEPTIDE1{[BiotPEG3TzBu].[Dab].T.[Dab].[Dab].[Dab].[dF].L.[Dab].[Dab].T}$PEPTIDE1,PEPTIDE1,5:R3-11:R2$$$V2.0 |  | 48 |
| PEPTIDE1{[BiotPEG3TzBu].[GDab].T.[GDab].[Dab].[GDab].[dF].L.[GDab].[GDab].T}$PEPTIDE1,PEPTIDE1,5:R3-11:R2$$$V2.0 |  | 25 |
